Results reported in US20260224561A1, “INHIBITORS OF CYCLIC ADP RIBOSE HYDROLASE AND METHODS OF USE THEREOF” (Flagship Pioneering Innovations VI, LLC, priority 2022, published 2026).
The match of structure and compound is tentative.

Protein sequences, listed by entry. Tags and fused reporters are not part of them.
UniProt P28907, whole entry: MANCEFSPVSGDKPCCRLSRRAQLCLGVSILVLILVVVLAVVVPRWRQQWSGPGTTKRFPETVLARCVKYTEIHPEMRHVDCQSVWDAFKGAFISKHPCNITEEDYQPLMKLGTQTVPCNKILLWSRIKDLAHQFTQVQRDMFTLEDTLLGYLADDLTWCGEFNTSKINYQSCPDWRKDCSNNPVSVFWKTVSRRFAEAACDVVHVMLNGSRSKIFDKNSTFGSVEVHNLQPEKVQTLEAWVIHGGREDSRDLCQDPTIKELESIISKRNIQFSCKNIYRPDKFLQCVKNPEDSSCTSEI

Target: Human recombinant CD38 (Homo sapiens, UniProt P28907)
Assay: CD38 hydrolase inhibition assay
Conditions: glycohydrolase activity, 0.2 ng/μL CD38, 100 μM ε-NAD substrate, fluorescence excitation 300 nm / emission 410 nm

O=C(Nc1ccnc(C(F)(F)F)c1)c1cc(OC2CC2)cc(-n2ccnc2)c1
IC50: 100 to 1000 nM
